PubChem BioAssay AID652243 | Drosophila RNAi Screening Center, 2013
The deposit covers about 24,000 reagents; below is a random part of those that have a named target and a result. Over the whole deposit, 246 (1%) got an active call. 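Plates not normalised; calls are printed but the firefly/Renilla ratio behind them is not deposited; fold cut for lowering reported inconsistently.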 Raw values vary from plate to plate and are shown uncorrected. The numbers tell different reagents against one gene apart. Names joined by + are all predicted targets of the reagent. Not given: the amount of reagent.

- Test: 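Fly genes required for human androgen receptor driven transcription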 (primary screen)
- Cell system: Drosophila S2R+ cells
- Reagent: long dsRNA against Drosophila genes
- Time to read-out: 72 h (48 h, then 24 h hormone)
- Treatment: synthetic androgen R1881 at 10 nM for 24 h
- Detection: 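Per-well raw luminescence of the androgen-driven firefly reporter and of the Renilla control, two replicates each, without normalisation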
- Scale: firefly reporter light: higher = more light from androgen-responsive reporter; Renilla control light: higher = more constitutive control signal (cell number, transfection)
- Call rule: 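Hit when the log firefly-to-Renilla ratio dropped or increased by a fixed fold versus the mean of GFP or LacZ controls across duplicate plates; lowering cut given as 1.5 and as 3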
- Meaning of the calls: active = hit: reporter lowered or raised; inactive = no hit

Target gene,dsRNA no.,"firefly reporter light, replicate 1","firefly reporter light, replicate 2","Renilla control light, replicate 1","Renilla control light, replicate 2",Outcome
CG32192,1,4.91e5,5.00e5,9.16e5,1.31e6,inactive
CG32192,2,7.23e5,5.25e5,1.07e6,5.56e5,inactive
CtsL1 (Cathepsin L1),1,1.63e5,1.51e5,2.37e5,3.19e5,inactive
CtsL1 (Cathepsin L1),2,1.32e6,1.38e6,2.50e6,2.33e6,inactive
CtsL1 (Cathepsin L1),3,9.06e5,7.34e5,1.68e6,1.38e6,inactive
snu (snustorr),1,1.39e5,1.49e5,1.51e6,1.16e6,inactive
mesh,1,3.83e5,4.35e5,2.63e6,3.01e6,inactive
mesh,2,3.16e5,2.73e5,2.39e6,3.33e6,inactive
mesh,3,1.38e5,1.36e5,1.91e6,2.20e6,inactive
"AP-2alpha (Adaptor Protein complex 2, alpha subunit)",1,1.05e5,79571,4.78e5,5.88e5,inactive
"AP-2alpha (Adaptor Protein complex 2, alpha subunit)",2,2.42e5,2.46e5,4.91e5,8.05e5,inactive
CG14907 + Mettl4,1,1.11e5,98330,1.94e6,1.73e6,inactive
CG14907 + Mettl4,2,1.56e5,1.55e5,2.72e6,2.84e6,inactive
CG15471,1,3.11e5,3.02e5,2.86e6,2.93e6,inactive
CG15471,2,3.43e5,3.42e5,6.74e5,5.94e5,inactive
brk (brinker),1,7.39e5,1.03e6,1.63e6,1.98e6,inactive
brk (brinker),2,3.75e5,2.92e5,7.64e5,7.19e5,inactive
Rlb1,1,1.57e5,1.46e5,2.76e6,2.46e6,inactive
Rlb1,2,1.18e6,6.19e5,3.67e6,1.10e6,inactive
nan (nanchung),1,1.59e5,1.66e5,2.18e6,1.83e6,inactive
Spec2 (retired record),1,42402,81352,1.46e6,1.21e6,inactive
Spec2 (retired record),2,6.64e5,1.05e6,1.14e6,1.49e6,inactive
ths (thisbe),1,4.26e5,5.26e5,6.81e5,1.03e6,inactive
ths (thisbe),2,1.49e5,2.13e5,5.21e5,5.34e5,inactive
CG14515,1,1.12e5,1.16e5,1.93e6,2.54e6,inactive
Sesn (Sestrin),1,8.53e5,9.73e5,1.72e6,1.80e6,inactive
Sesn (Sestrin),2,4.17e5,3.74e5,2.41e6,1.79e6,inactive
Sesn (Sestrin),3,3.50e5,3.72e5,2.87e6,2.16e6,inactive
CG7102,1,6.41e5,7.87e5,2.59e6,2.31e6,inactive
CG7102,2,1.27e5,1.91e5,9.30e5,1.11e6,inactive
CCHa2-R (CCHamide-2 receptor),1,3.43e5,3.00e5,2.19e6,1.65e6,inactive
CCHa2-R (CCHamide-2 receptor),2,2.66e5,3.31e5,2.45e6,2.44e6,inactive
Pak3,1,42089,85046,2.87e5,3.98e5,inactive
Pak3,2,3.26e5,3.53e5,3.89e5,4.50e5,inactive
Pak3,3,,,,,inactive
CG7031,1,8.01e5,8.54e5,1.14e6,1.44e6,inactive
CG7031,2,2.97e5,4.53e5,5.54e5,5.99e5,inactive
CG4045,1,97616,1.14e5,1.03e6,7.61e5,inactive
CG7142,1,1.45e5,2.69e5,1.99e6,2.38e6,inactive
CG7142,2,4.38e5,4.34e5,6.81e5,5.74e5,inactive
CG34296,1,1.23e6,9.77e5,2.24e6,1.74e6,inactive
CG14860,1,2.18e5,2.63e5,3.20e6,3.67e6,inactive
CG14860,2,3.97e5,4.70e5,1.26e6,1.18e6,inactive
EMC3 (ER membrane protein complex subunit 3),1,1.91e5,2.87e5,1.51e6,1.60e6,inactive
EMC3 (ER membrane protein complex subunit 3),2,5.67e5,6.70e5,1.68e6,1.80e6,inactive
CG12123,1,1.11e5,91939,4.67e5,7.29e5,inactive
Gr97a (Gustatory receptor 97a),1,63082,2.45e5,89704,3.45e5,inactive
RhoGEF4 (Rho guanine nucleotide exchange factor 4),1,1.47e6,9.88e5,2.37e6,1.91e6,inactive
RhoGEF4 (Rho guanine nucleotide exchange factor 4),2,4.32e5,3.32e5,9.35e5,6.38e5,inactive
NimC4 (Nimrod C4),1,2.09e5,55400,1.22e6,8.64e5,inactive
Picot,1,9.55e5,1.99e5,1.05e6,3.83e5,inactive
Picot,2,4.65e5,3.53e5,4.37e5,4.80e5,inactive
Obp19b (Odorant-binding protein 19b),1,3.65e5,2.03e5,1.26e6,5.28e5,inactive
Obp19b (Odorant-binding protein 19b),2,6.30e5,6.40e5,1.64e6,1.58e6,inactive
CheA56a (Chemosensory protein A 56a),1,4.52e5,5.78e5,9.90e5,1.50e6,inactive
rno (rhinoceros),1,1.31e5,1.97e5,1.85e6,1.79e6,inactive
Syx6 (Syntaxin 6),1,7.27e5,1.12e6,9.98e5,1.62e6,inactive
Syx6 (Syntaxin 6),2,2.72e5,2.89e5,8.04e5,4.99e5,inactive

3 of these entries, reformatted.
Spec2 (retired record) #1 — firefly reporter light, replicate 1 = 42402; firefly reporter light, replicate 2 = 81352; Renilla control light, replicate 1 = 1.46e6; Renilla control light, replicate 2 = 1.21e6; Outcome = inactive
Spec2 (retired record) #2 — firefly reporter light, replicate 1 = 6.64e5; firefly reporter light, replicate 2 = 1.05e6; Renilla control light, replicate 1 = 1.14e6; Renilla control light, replicate 2 = 1.49e6; Outcome = inactive
ths (thisbe) #1 — firefly reporter light, replicate 1 = 4.26e5; firefly reporter light, replicate 2 = 5.26e5; Renilla control light, replicate 1 = 6.81e5; Renilla control light, replicate 2 = 1.03e6; Outcome = inactive
